Measured values reported in PubChem BioAssay AID588499 (NMMLSC, 2011).
Among all 360,000 compounds or so, about 610 (0.17%) were called active. This list was built around the results that the source calls inconclusive (neither active nor inactive); the mix of calls is not that of the screen. No stated cut-off is given here; in the data, active means inhibition above about 30%; inconclusive means no clear call, values can overlap the other calls; inactive means below that.

Each compound was assayed on Botulinum neurotoxin type A light chain protease (Clostridium botulinum A str. ATCC 3502) (assay: blockers of BoNT/A LC substrate cleavage – biochemical, flow cytometry, MLPCN library, primary screen (AID 588499; further: plate controls were buffer without enzyme for full effect and enzyme alone for no effect)). Conditions: multiplex microsphere protease substrate cleavage, at 10 µM, hits give high values.

Row | SMILES | inhibition
1 | CCc1cccc(C)c1NC(=O)CC(C)(C)CC(=O)O | inconclusive: 4.7%
2 | Cc1ccc(S(=O)(=O)N[C@@H](CC(C)C)C(=O)NCc2ccco2)cc1 | inconclusive: -0.4%
3 | CCN1CCN(c2ccc(S(=O)(=O)N3CCCCC3)cc2NC(=O)c2ccc([N+](=O)[O-])o2)CC1 | inconclusive: -5.2%
4 | COc1ccccc1-c1c(C)oc2c(CN3CCN(CCO)CC3)c(O)ccc2c1=O | inactive: -0.2%
5 | CCNC(=O)C1(C)CCN(C(=O)c2cccc(OC(F)(F)F)c2)C1 (stereo unspecified) | inactive: 0%
6 | Cc1cc2oc3c(c(=O)c2cc1C)C(c1cccc(Br)c1)N(Cc1ccco1)C3=O (stereo unspecified) | inactive: -0.5%
7 | CCn1c(SCC(=O)Nc2ccc(C)cc2)nnc1-c1ccccn1 | inactive: -1.2%
8 | CN(C)/C=C(/C(=O)c1ccc(Cl)cc1Cl)S(=O)(=O)c1ccc(Cl)cc1 | inactive: -0.2%
9 | CC(C)Cn1nnc2c(=O)oc3ccccc3c21 | inconclusive: -2.1%
10 | O=c1c(O)c(-c2cccs2)oc2ccccc12 | active: 31.4%
11 | Cc1csc(C(=O)O)c1NC(=O)c1c(Cl)cccc1Cl | inactive: -2%
12 | O=C1CSC(c2ccc([N+](=O)[O-])cc2)N1Cc1ccccc1 (stereo unspecified) | inconclusive: -6.6%
13 | Brc1cnc(N2CCCC2)nc1N1CCOCC1 | inconclusive: 2%
14 | COc1ccc(-c2cc3cc(OC)c(OC)cc3cn2)cc1OC | inconclusive: 2.3%
15 | Cc1cc(N2CCN(c3ccccc3)CC2)n2c(n1)nc1ccccc12 | inconclusive: -5.5%
16 | C=CCSc1n[nH]c(=O)n1-c1cccc(C(F)(F)F)c1 | inconclusive: -14.3%
17 | O=C(Nc1cccc(-c2nc3ccccc3[nH]2)c1)c1cccc(NC(=O)c2ccco2)c1 | inactive: 0.2%
18 | Cc1ccccc1C1=NCC(=O)N(CC(=O)N2CCCCC2)c2sc(C)c(C)c21 | inconclusive: 0.2%
19 | COc1ccc(-c2cc(C(=O)Nc3cc(S(N)(=O)=O)ccc3C)c3ccccc3n2)cc1OC | inconclusive: 9%
20 | CN(Cc1ccccc1)c1nc2c(c(=O)[nH]c(=O)n2C)n1Cc1ccccc1Cl | inconclusive: -1.6%
21 | O=C(NCCN1CCOCC1)c1cc2sccc2n1Cc1ccc(Cl)cc1 | inactive: 0.3%
22 | Cn1cccc1Cc1nnc(SCC(=O)NCc2ccco2)n1CCc1ccccc1 | inconclusive: 4%
23 | CCCCC[n+]1ccn(C2=C([O-])c3ccccc3C(=O)/C2=N\S(=O)(=O)c2ccc(Cl)cc2)c1 | inconclusive: 5.9%

Row | SMILES | inhibition
24 | S=C(NCc1ccco1)Nc1cccc(Cl)c1 | inconclusive: 3.4%
25 | CCn1c(SCC(=O)NNC(=O)c2ccccc2)nnc1-c1ccncc1 | inconclusive: -0.3%
26 | CC(C)c1ccc(N(CC(=O)NCCSC(C)(C)C)S(C)(=O)=O)cc1 | inconclusive: -4.5%
27 | Cc1noc(C)c1-c1nc(CSc2ccc(Cl)cc2)no1 | inconclusive: 11.8%
28 | CCn1c(=N)n(CC(=O)c2ccco2)c2ccccc21 | inconclusive: -493%
29 | COc1cc(F)ccc1-c1csc(C(O)c2ccccc2)n1 (stereo unspecified) | inactive: -0.4%
30 | CNc1nc(-c2c[nH]c3ccccc23)cs1 | inconclusive: 46.4%
31 | O=C(Cn1nc(-c2ccccc2)c2ccccc2c1=O)NN1CCOCC1 | inconclusive: 29.2%
32 | Cc1cccc(NC(=O)CN(C)S(=O)(=O)c2ccc(Br)cc2)n1 | inconclusive: -3.5%
33 | O=[N+]([O-])c1cccnc1Sc1ccccc1Cl | inconclusive: 10.2%
34 | Cc1cc(NC(=O)CSc2nc(-c3ccc(Cl)cc3)cs2)no1 | inconclusive: -1.4%
35 | CSc1ccc(CN2CCC(CO)(CCOc3ccccc3)CC2)cc1 | inconclusive: 0.6%
36 | O=C(CCS(=O)(=O)c1ccccc1)Nc1ccc(N2CCN(Cc3ccccc3)CC2)cc1 | inactive: 5.7%
37 | CCOC(=O)c1[nH]c2ccccc2c1NC(=O)c1ccc(Br)o1 | inconclusive: -0.1%
38 | O=c1c(C(c2ccc(Br)cc2)c2c(O)nc3n(c2=O)CCS3)c(O)nc2n1CCS2 | inconclusive: -32.9%
39 | Cn1c(Cl)nc2c1c(=O)n(Cc1cccc(Br)c1)c(=O)n2C | inactive: 0.5%
40 | O=C(NCCc1ccccc1)c1cc2ncc(Br)cn2n1 | inactive: 0.6%
41 | CCn1c(SCC(=O)Nc2cc(C)on2)nc2c1c(=O)n(C)c(=O)n2C | inconclusive: -1.2%
42 | CC1(C)CC(=O)c2c(O)cc(OCc3ccc([N+](=O)[O-])cc3)cc2O1 | inconclusive: -4.2%
43 | COc1cccc(CN2CCN(CCCc3ccccc3)C(CCO)C2)c1O (stereo unspecified) | inconclusive: -3.2%
44 | CN1CCC=C(C(=O)N2c3ccccc3Sc3ccc(Cl)cc32)C1 | inconclusive: 8.5%
45 | COc1ccc(/C=N/NC(=O)c2ccc(=O)n(C)c2)cc1OC | inactive: 0.8%
46 | Cc1ccc(-c2nc3c(c(=O)c4ccccc4n3C)c(=O)n2-c2ccc(F)cc2)cc1 | inconclusive: -55%

Row | SMILES | inhibition
47 | COc1cc2c(cc1O)CC1c3c(cc(O)c(OC)c3-2)CCN1C (stereo unspecified) | inactive: -1%
48 | Cc1ccccc1N1C(=O)[C@@H]2Cc3ccccc3CN2C1=O | inconclusive: 5.6%
49 | Cn1c(N)c(C(=O)CSc2nn(-c3ccc(F)cc3)c(=S)s2)c(=O)n(C)c1=O | inactive: -2.5%
50 | CCCCn1c(O)c(/C(C)=N/NC(=O)Nc2ccccc2)c(=O)[nH]c1=O | inconclusive: 1.7%
51 | COC(=O)CC1COc2ccccc2N1C(=O)c1ccc(C(C)(C)C)cc1 (stereo unspecified) | inconclusive: 0.6%
52 | O=C/C(=C\Nc1ccccn1)c1nc2ccccc2o1 | inconclusive: -4.6%
53 | O=C1CC(N2CCN(c3cccc(C(F)(F)F)c3)CC2)C(=O)N1c1ccccc1 (stereo unspecified) | inconclusive: 3.9%
54 | COc1ccccc1N1CCN(/N=C\c2ccccc2)CC1 | inconclusive: -2.1%
55 | NNC(=O)c1ccc(COCC(F)(F)F)cc1 | inconclusive: -34.9%
56 | COCCCn1c(SCCc2ccccc2)nc2cc(OC)c(OC)cc2c1=N | inactive: -0.8%
57 | CC(C)(C)c1csc(NC(=O)CSc2nc3ccccc3c(=O)[nH]2)n1 | inconclusive: 8.6%
58 | CCOc1ccc(OCCC(=O)N(CCC2=CCCCC2)c2c(N)n(Cc3ccccc3)c(=O)[nH]c2=O)cc1 | inconclusive: -1.8%
59 | CC(C)(C)c1csc(NC(=O)c2cccnc2)n1 | inconclusive: -3.5%
60 | Cc1cc(SCC(=O)O)nc2ccccc12 | inconclusive: 35.4%
61 | c1ccc(-c2nnc(SCc3nc4ccccc4[nH]3)n2Cc2ccco2)cc1 | inconclusive: 1.9%
62 | O=c1cc(CN2CCC(Cc3ccccc3)CC2)nc2sccn12 | inactive: 0.1%
63 | COC(=O)C1=C(C)C(c2cccs2)NC(=O)N1C (stereo unspecified) | inconclusive: -0.8%
64 | CCN1C(=O)c2ccc(C(=O)O)cc2C1=O | inactive: -0.6%
65 | CC(=O)c1ccc(Nc2nc(CN)cs2)cc1 | inactive: 0.2%
66 | COC(=O)c1cc(S(=O)(=O)NCc2ccc(S(N)(=O)=O)cc2)oc1C | inconclusive: 10.4%
67 | Cc1ccc(C2=NCC(=O)N(CC(=O)N3CCCCC3)c3sc(C)c(C)c32)cc1 | inconclusive: -2.3%
68 | Cn1c(SCC(=O)N2CCOCC2)nnc1-c1ccc2ncccc2c1 | inconclusive: -11.4%
69 | Cc1ccc(-c2nc(-c3cccnc3)sc2CC(=O)Nc2ccc(C)c(Cl)c2)cc1 | active: 51.4%

Quoted from the listing.
CC(C)(C)c1csc(NC(=O)c2cccnc2)n1 | inhibition: inconclusive: -3.5%
Cc1ccccc1N1C(=O)[C@@H]2Cc3ccccc3CN2C1=O | inhibition: inconclusive: 5.6%
Cn1c(SCC(=O)N2CCOCC2)nnc1-c1ccc2ncccc2c1 | inhibition: inconclusive: -11.4%

Reprinted at random: 5 compounds from above.
Row | SMILES | inhibition
55 | NNC(=O)c1ccc(COCC(F)(F)F)cc1 | inconclusive: -34.9%
58 | CCOc1ccc(OCCC(=O)N(CCC2=CCCCC2)c2c(N)n(Cc3ccccc3)c(=O)[nH]c2=O)cc1 | inconclusive: -1.8%
61 | c1ccc(-c2nnc(SCc3nc4ccccc4[nH]3)n2Cc2ccco2)cc1 | inconclusive: 1.9%
56 | COCCCn1c(SCCc2ccccc2)nc2cc(OC)c(OC)cc2c1=N | inactive: -0.8%
54 | COc1ccccc1N1CCN(/N=C\c2ccccc2)CC1 | inconclusive: -2.1%

Next structures follow:

Row | SMILES | inhibition
70 | COc1ccc(C(=O)NCCOC(C)C)cc1OC1CCN(C(C)=O)CC1 | inconclusive: 6.7%
71 | CCCS(=O)(=O)c1c(S(=O)(=O)CCC)c2c(N)cccn2c1C(=O)c1ccccc1 | inconclusive: -0.9%
72 | COc1ccc(CC(=O)NNc2ncnc3c2cnn3Cc2ccccc2)cc1OC | inconclusive: -54.1%
73 | COc1ccc(CN2C(=O)c3cccnc3C2Nc2ccc(OC)c(Cl)c2)cc1 (stereo unspecified) | inconclusive: 3.9%
74 | Cc1ccc(OCC(=O)Nc2cccc(-c3nnc(-c4ccccc4)o3)c2)c(C)c1 | inconclusive: 2.3%
75 | CCSc1nc2sc3c(c2c(=O)n1C1CCCCC1)CCN(C)C3 | active: 45.2%
76 | CC(C)c1ccc2c(c1)C1(NN=C(c3ccccc3)S1)C(=O)N2 (stereo unspecified) | inactive: -0.5%
77 | CC1=C(C(=O)NCc2ccccc2)C(c2ccc(C)o2)n2ncnc2N1 (stereo unspecified) | inconclusive: -0.4%
78 | CCCN(CC(=O)Nc1ccccc1OC)C(=O)c1nc2nc(C)ccn2n1 | inconclusive: -2.2%
79 | O=C(NC1CCCCCC1)C1c2ccccc2C(=O)N1CCCN1CCOCC1 (stereo unspecified) | inconclusive: 1.4%
80 | NC(=O)Cn1c(=O)n(Cc2ccco2)c(=O)c2c3c(sc21)CCCCC3 | inconclusive: 10.9%
81 | Cc1n[nH]c(C)c1Cc1c(F)cccc1Cl | inconclusive: 0.6%
82 | N#Cc1nccnc1N1CCN(C(=O)Nc2ccccc2)CC1 | inconclusive: 8.3%
83 | COc1ccc(-c2ccnc3nc(N4CCN(c5ccccc5)CC4)nn23)cc1 | inconclusive: -1.4%
84 | COP(=O)(NC(=O)C(Cl)(Cl)Cl)OC | inactive: -0.7%
85 | FC(F)(F)c1ccnc(Oc2ccc(C3=NCCS3)cc2)c1 | inconclusive: 13%
86 | CCc1ccc(N2C(=O)Cc3c2nc(N)c(C#N)c3N)cc1 | inconclusive: 3.8%
87 | COc1ccc(CNC(=O)COC(=O)c2n[nH]c3ccccc23)cc1OC | inconclusive: -1.2%
88 | COCCCN(C(=O)c1cc(Cl)nc2ccccc12)c1c(N)n(Cc2ccccc2)c(=O)[nH]c1=O | inconclusive: -0.9%
89 | CC(=O)NCCn1c(SCC(=O)c2ccc(Cl)cc2)nc2ccccc2c1=O | inconclusive: -2.5%
90 | CCn1c(SCC(=O)Nc2ccc3c(c2)OCO3)nnc1-c1cnccn1 | inconclusive: -5.2%
91 | Cc1ccc(S(=O)(=O)N2CCCC2C(=O)NCc2ccccc2Cl)cc1 (stereo unspecified) | inactive: -0.1%
